{
  "source": "patent US8796244B2",
  "about": "“Imidazopyridine derivatives as inhibitors of receptor tyrosine kinases” (Astex Therapeutics Ltd, priority 2008, dated 2014)",
  "key": {"[1]": {"test_system": "parental wild-type Ba/F3 cells", "assay": "Ba/F3 (WT) cell proliferation assay (Alamar Blue)", "assay_type": "cell-based", "details": "Mus musculus, BaF3, read-out: BaF3 WT prolif, % inhibition"}},
  "data": [
    {"smiles": "O=C(NCC(F)(F)F)Nc1cccc(-c2cnc3cc(-c4nnc(CCO)s4)ccn23)c1", "note": "[Compound 263]", "values": [
      {"measurement": "inhibition at 1 µM", "setting": "[1]", "result": 21, "unit": "%"},
      {"measurement": "melting point", "result": 230, "unit": "°C"}
    ]}
  ]
}
